Reference: PubChem BioAssay AID1347423 (Functional Genomics Laboratory (NCATS/FGL), 2020)
The whole screen tested about 52,000 sequences, of which about 210 (0.4%) were called active.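 The calls were made as follows: active = gene whose silencing raises cell survival under the drug, median off-target-corrected z-score across its silencing RNAs 2 or more; inactive = the rest.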 This is one part of the list.

Experiment: Resistance to Poly (ADP-Ribose) Polymerase inhibitor: Gene Identification via Genome-wide siRNA Screen
Conditions: mouse BRCA2 R2336H ES cells, olaparib, CellTiter-Glo viability; stronger effect = higher value
In short: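 Mouse BRCA2 R2336H ES cells were reverse-transfected with siRNA (20 nM final), treated at 48 h with 500 nM olaparib, and read by CellTiter-Glo after 72 h. Scores: MAD-based z per siRNA, median per gene, seed off-target correction.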

Sequence | z-score
GGAGUUGGAGAACAUUAUGTT against Dmrt2 | inactive: 0.83
GCCGGAUCUAUUAAAGAAATT against Hdac2 | inactive: 0.649
GUCAAAGCACCAUUUGAGUTT against V1rc32 | inactive: -0.166
GGUGAUGGAAUACCAAAGGTT against ORF28 | inactive: -0.844
GGCAUCUGAGCUGAGGAUUTT against Gem | inactive: 0.275
GGACAAAUCUUCGUGCAAATT against Tle4 | inactive: 1.27
GGAAGACCUUCUUAAACACTT against Gpr73l1 | inactive: 1.16
GGUAUCCAGAUGAAAGAUGTT against Nalp10 | inactive: -1.18
GGGUUCCUCCUUUCACAGATT against Ppia | inactive: -0.754
CGUAGAGAUGGCGUAUGUCTT against E130307M08Rik | inactive: -1
GCUUGCUGUUACGAUUCGCTT against Rab35 | inactive: 0.759
UAACUCCAUGAUCAAUCCCTT against Gpr6 | inactive: 0.687
GGCCAGAAUGUAUAAAGCUTT against 5730589L02Rik | inactive: 1.84
GGCCGAUCCUCUUUUAAAUTT against C130034I18Rik | inactive: -0.22
GGAAAGUCUCUGUUGUUCUTT against Alas1 | inactive: -1.09
GGGAUUCUGAUCGUGUCCATT against Olfr1509 | inactive: 0.736
GGAAAAACAGCUUAACACUTT against Svs7 | inactive: 0.732
CCAGUAGUUACAAUGUUCUTT against 9530077C05Rik | inactive: 0.21
CGAAAGGGAGAAAUUUGCUTT against 9930013L23Rik | inactive: 1.62
GGUGAAAAGCAGCUAACAATT against 4921533L14Rik | inactive: -0.268
GCCUGAUAGUGCAGAAACATT against Rabl2a | inactive: -2.62
GCUGAAAAUAUACCAUUCATT against LOC239447 | inactive: -1.97

Sequence | z-score
CGUGAGAUCAUUGAUGUGGTT against Ankrd2 | inactive: 0.745
GCCUUUCAUACAUUCAACATT against Olfr313 | inactive: -0.0644
CCCAACACCCAAUAAAGUUTT against 2610034E13Rik | inactive: 0.0356
GCACCUUUGAGUGCAACAUTT against 1700022N24Rik | inactive: -1.37
AGGUGAUGGGUUAUGGCAGTT against Olfr1331 | inactive: 0.0783
CCCUGUAAUCAGUAGAAGATT against AU041783 | inactive: -1.26
GGUCUACAUUCGGAUAAAATT against 4933437K13Rik | inactive: 0.403
GGUAGAAGUCGUCUCUAACTT against Csf2 | inactive: 0.374
GGGACACACGGUAUACAUCTT against Pfkl | inactive: 0.358
CCCUGCGCCCUCUAAUAAATT against Pla2g1b | inactive: -1.44
GGAUGUAAAGAGGAAUCUCTT against Abca16 | inactive: 0.00377
GCCAGAAUGUGCUCAUUCGTT against Amhr2 | inactive: -2.04
GGUGUGCUAUACAUUAAGATT against 4930422G04Rik | inactive: -0.604
GCCUGUGGUAGGAUACUAUTT against Denr | inactive: -2.27
GGAAUUUUCAAGGAACAAUTT against Il1rapl2 | inactive: 1.98
GGCCAUCAGUAACCCAUUGTT against Olfr1132 | inactive: -0.731
GGAGUACCCGGACUACAAGTT against Sox3 | inactive: -0.146
GGAGUAGAUUUAAAAGGCATT against 4933440M02Rik | inactive: -0.818
GGUCAAGAGAAUGUACAGATT against 2810404F18Rik | inactive: -0.292
CCAGCAGCAAUUAGGACGUTT against Ogdh | inactive: -0.941
CCAUGAGAACCUGAUGAAUTT against Pag | inactive: -0.41
GGAAAUGUGCAAUUUAGUGTT against Abcb1a | inactive: -0.29

Sequence | z-score
GGACAGAACUGGAAAUUUUTT against D11Ertd603e | inactive: 0.454
GGACUGGUCCAUGAGAAGGTT against 1200014P03Rik | inactive: -0.0863
GGUCCUCCAGUAAGGACAATT against Hsd3b6 | inactive: -0.117
CGCUAAUCUUCGAAAACCUTT against Abcc12 | inactive: 2.15
GCCCUUUGAGACAUUGGAATT against Ciz1 | inactive: -0.161
GGAGCAAAAGGGUCAGAGGTT against Socs3 | inactive: -0.964
GCCUUCAUAGUUGGAAACCTT against Olfr172 | inactive: 0.619
GGGUAUGAUUAAAAGGUAATT against Gdf8 | inactive: 0.086
GGAUCCGUGCUGAAGUUUUTT against 0610037P05Rik | inactive: 0.441
GGACCUCAACAUCCAGAGATT against Sema6b | inactive: 0.337
GGCUAAUAUUUCCAUUGUATT against 1110018M03Rik | inactive: -0.584
GGUUUUGUUAUGGUAAGUCTT against Vdr | inactive: -0.305
CCAUAACCGUGGAAAUUUUTT against Galnt3 | inactive: 0.0839
GUUCUAUGGUAGACAUUAUTT against Kb14 | inactive: -0.645
GGCCAGAGACAGUUAUCUUTT against 1110032A04Rik | inactive: 2.12
CGUGCACACUCAGAGAGUUTT against Wac | inactive: 0.0117
GCCCAUGUCCGUUACUAUATT against Trim2 | inactive: 0.951
UCUGCUAAGCUGACCCUUUTT against 2210020M01Rik | inactive: -1.06
GCAGUUACGUUAGUUAAUATT against AA960558 | inactive: 0.265
GGACUUCGGCACUGCUUAUTT against AI931714 | inactive: -1.92
GGACAUUGUUGUCCAAACUTT against Spnb1 | inactive: 0.446
GGAGAUUCUGUGCUACUCCTT against Xrcc3 | inactive: 0.311

Quoted at random: 2 records from the list
Sequence | z-score
CGCUAAUCUUCGAAAACCUTT against Abcc12 | inactive: 2.15
GGGUAUGAUUAAAAGGUAATT against Gdf8 | inactive: 0.086
